Data published in PubChem BioAssay AID314 (DTP/NCI, 2004).
The list shows only some results of the screen, not a fair sample: it gathers some chemical classes. Not every dose and run of a compound is shown. T/C gives the treated animals as a percentage of the vehicle group. Where survival is the endpoint, the PubChem record calls one and a half times the control and up active, and a quarter to a half above the control has no call in these data; cut-offs in other NCI protocols can differ. Some entries show no survivor count and are marked so; the dose need not have been tolerated. Schedule codes are those of the source, read here as Q, the interval in days (D) or hours (H), X, the number of doses. Counts like (3×) count equal records among those shown. Some entries were tested several times; the values are given in rising order.

Test system: DBA/2 mice, P1534 leukemia ip, survival T/C
Test: NCI In Vivo Anticancer Drug Screen. Data for tumor model P1534 Leukemia (intraperitoneal) in DBA/2 mice
Settings: T/C endpoint: mean survival time, schedule: Q01DX010 (ip), vehicle: saline, higher T/C = longer survival
Method: The antitumor activity of compounds was measured in mice bearing transplantable tumors. Survival or tumor size were measured and the results are expressed as the measurement made in the treated group (T) divided by the measurement made in the vehicle treated control group (C). The tumor model used in this assay is P1534 Leukemia (intraperitoneal) in DBA/2 mice

CC(C(=O)O)N(CCCl)CCCl (centres undefined)
T/C (dose: 1.0 mg/kg/injection): 114 [survivor count not shown] and 117 % of control [survivor count not shown] | T/C (dose: 2.0 mg/kg/injection): 117 [survivor count not shown] and 128 % of control [survivor count not shown] | T/C (dose: 4.0 mg/kg/injection): 121 [survivor count not shown] and 139 % of control [survivor count not shown]

O=C(O)CN(CCCl)CCCl
T/C (dose: 0.63 mg/kg/injection): 107 [survivor count not shown] and 110 % of control [survivor count not shown] | T/C (dose: 1.25 mg/kg/injection): 117 [survivor count not shown] and 146 % of control [survivor count not shown] | T/C (dose: 2.5 mg/kg/injection): 146 % of control [survivor count not shown]

ClCCN(CCCl)Cc1nc2ccccc2[nH]1
T/C (dose: 0.63 mg/kg/injection): 92 [survivor count not shown] and 103 % of control [survivor count not shown] | T/C (dose: 1.25 mg/kg/injection): 100 [survivor count not shown] and 111 % of control [survivor count not shown] | T/C (dose: 2.5 mg/kg/injection): 100 [survivor count not shown] and 123 % of control [survivor count not shown] | T/C (dose: 5.0 mg/kg/injection): 114 [survivor count not shown] and 146 % of control [survivor count not shown]

ClCCNCCCl
T/C (dose: 5.0 mg/kg/injection): 100 % of control [survivor count not shown] (2×) | T/C (dose: 10.0 mg/kg/injection): 100 [survivor count not shown] and 107 % of control [survivor count not shown] | T/C (dose: 18.8 mg/kg/injection): 96 [survivor count not shown] and 111 % of control [survivor count not shown] | T/C (dose: 20.0 mg/kg/injection): 103 [survivor count not shown] and 107 % of control [survivor count not shown] | T/C (dose: 37.5 mg/kg/injection): 114 % of control [survivor count not shown] | T/C (dose: 40.0 mg/kg/injection): 110 [survivor count not shown] and 117 % of control [survivor count not shown]

NC(Cc1cccc(N(CCCl)CCCl)c1)C(=O)O (centres undefined)
T/C (dose: 0.63 mg/kg/injection): 121 [survivor count not shown] and 138 % of control [survivor count not shown] | T/C (dose: 1.25 mg/kg/injection): 135 [survivor count not shown] and 138 % of control [survivor count not shown] | T/C (dose: 2.5 mg/kg/injection): 92 % of control [survivor count not shown]
